In publication PMC11387718 one finds binding data, which are given here for two substances.

Chains of the proteins cited; added tags and fusions are not shown. Residues count along the entry.
UniProt O60678: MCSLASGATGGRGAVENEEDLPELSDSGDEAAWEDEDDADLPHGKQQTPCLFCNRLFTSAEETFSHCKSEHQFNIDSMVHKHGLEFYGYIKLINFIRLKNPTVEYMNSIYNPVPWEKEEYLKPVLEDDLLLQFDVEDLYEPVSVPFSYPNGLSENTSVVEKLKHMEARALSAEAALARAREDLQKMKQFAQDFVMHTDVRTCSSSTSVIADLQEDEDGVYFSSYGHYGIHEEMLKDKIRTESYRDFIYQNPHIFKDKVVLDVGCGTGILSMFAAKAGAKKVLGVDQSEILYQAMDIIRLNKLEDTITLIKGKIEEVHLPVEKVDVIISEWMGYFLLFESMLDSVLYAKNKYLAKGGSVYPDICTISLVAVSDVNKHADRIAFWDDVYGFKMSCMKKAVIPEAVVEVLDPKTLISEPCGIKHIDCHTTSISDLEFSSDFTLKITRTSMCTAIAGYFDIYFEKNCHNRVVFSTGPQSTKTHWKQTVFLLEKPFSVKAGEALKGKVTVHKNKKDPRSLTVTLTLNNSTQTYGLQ
UniProt Q922H1: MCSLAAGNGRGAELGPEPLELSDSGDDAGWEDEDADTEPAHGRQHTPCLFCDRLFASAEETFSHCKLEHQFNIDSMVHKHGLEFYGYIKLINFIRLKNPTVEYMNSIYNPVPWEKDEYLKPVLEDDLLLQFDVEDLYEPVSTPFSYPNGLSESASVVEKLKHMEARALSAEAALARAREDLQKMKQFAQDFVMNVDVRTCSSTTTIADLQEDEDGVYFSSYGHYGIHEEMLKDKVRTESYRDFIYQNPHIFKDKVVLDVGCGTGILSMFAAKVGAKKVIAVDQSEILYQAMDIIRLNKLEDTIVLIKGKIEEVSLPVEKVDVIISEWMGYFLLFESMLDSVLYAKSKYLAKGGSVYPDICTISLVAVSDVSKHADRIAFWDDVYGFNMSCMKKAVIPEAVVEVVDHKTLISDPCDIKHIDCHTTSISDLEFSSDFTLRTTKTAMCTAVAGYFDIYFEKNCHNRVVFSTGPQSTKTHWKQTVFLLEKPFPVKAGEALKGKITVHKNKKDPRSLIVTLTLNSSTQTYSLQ
UniProt P63038, residues 27-573: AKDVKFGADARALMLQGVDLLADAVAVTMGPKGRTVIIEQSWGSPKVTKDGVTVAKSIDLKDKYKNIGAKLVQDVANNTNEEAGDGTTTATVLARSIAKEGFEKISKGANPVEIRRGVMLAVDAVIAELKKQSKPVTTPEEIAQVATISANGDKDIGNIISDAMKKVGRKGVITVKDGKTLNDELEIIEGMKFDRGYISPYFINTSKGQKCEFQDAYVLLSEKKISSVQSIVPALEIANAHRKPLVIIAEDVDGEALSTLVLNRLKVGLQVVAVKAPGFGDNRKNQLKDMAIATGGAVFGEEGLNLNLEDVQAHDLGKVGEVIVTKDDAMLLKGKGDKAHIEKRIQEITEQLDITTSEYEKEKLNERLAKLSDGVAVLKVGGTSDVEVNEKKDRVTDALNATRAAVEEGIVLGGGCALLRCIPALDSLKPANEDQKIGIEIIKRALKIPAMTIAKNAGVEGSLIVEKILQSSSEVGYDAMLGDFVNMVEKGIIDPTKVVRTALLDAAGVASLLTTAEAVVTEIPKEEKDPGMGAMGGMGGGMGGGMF
UniProt P10809, residues 27-573: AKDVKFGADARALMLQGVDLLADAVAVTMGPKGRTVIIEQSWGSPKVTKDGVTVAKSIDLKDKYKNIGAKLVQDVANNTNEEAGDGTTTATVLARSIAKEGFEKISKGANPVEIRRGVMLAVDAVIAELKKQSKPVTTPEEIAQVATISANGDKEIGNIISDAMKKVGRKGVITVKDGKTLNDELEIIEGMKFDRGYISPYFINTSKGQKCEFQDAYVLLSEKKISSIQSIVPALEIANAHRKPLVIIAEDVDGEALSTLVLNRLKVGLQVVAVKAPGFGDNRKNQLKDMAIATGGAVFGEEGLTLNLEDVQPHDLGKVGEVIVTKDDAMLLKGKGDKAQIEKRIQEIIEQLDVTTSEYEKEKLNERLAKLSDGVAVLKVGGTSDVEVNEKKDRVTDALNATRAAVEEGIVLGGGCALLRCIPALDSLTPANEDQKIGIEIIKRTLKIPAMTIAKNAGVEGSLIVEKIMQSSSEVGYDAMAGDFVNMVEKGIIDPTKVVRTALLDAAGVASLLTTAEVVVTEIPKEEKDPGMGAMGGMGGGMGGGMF

No constants are given. Whether binding was seen depends on the method and setting. In cells and extracts the contact can be indirect. Some results given as binding are weak or reduced against the parent protein; the word gives no strength.

The target in test [1] is protein arginine methyltransferase 3 (PRMT3), human, in PLC-8024 cells (human (endogenous in PLC-8024)) (UniProt O60678). As to the kind of experiment: co-IP; reciprocal co-IP of endogenous PRMT3 and HSP60 from PLC-8024 and Hepa1-6 lysates (2 mg lysate, antibody overnight at 4 °C, protein A/G agarose, 3 washes), western blot.
Test [2] has as its target protein arginine methyltransferase 3 (PRMT3), mouse, in Hepa1-6 cells (mouse (endogenous in Hepa1-6)) (UniProt Q922H1). The description is as above.
Test [3] addresses HSP60 (encoded by the HSPD1 gene), mouse, in Hepa1-6 cells (mouse (endogenous in Hepa1-6)) (UniProt P63038). As to the kind of experiment: cross-linking; cells (PLC-8024, Hepa1-6; control, Prmt3-KO or SGC707-treated) incubated with 1 mM BS3 for 15 min at room temperature, quenched with Tris-HCl pH 7.5, lysed, western blot for HSP60; multimers are bands over 180 KD, monomers at 60 KD. (In general: Immunoblotting shows a protein as a band on a membrane.)

As to “HSP60 (encoded by the HSPD1 gene), human, in PLC-8024 cells (from UniProt P10809 27-573)”, the binding result in test [1] is recorded as “binds”. As to “HSP60 (encoded by the HSPD1 gene), mouse, in Hepa1-6 cells (from UniProt P63038 27-573)”, the binding result in test [2] and in test [3] was “binds” in each case.
